CoaBC: 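Coenzyme A biosynthesis protein CoaBC, Mycobacterium tuberculosis (UniProt P9WNZ1). Enzyme assay of CoaBC with a phosphate dye (Biomol Green) read at 650 nm. Tested at 30 µM. Higher reads as stronger inhibition, judged from the few compounds that gave an IC50. Most strong results did not repeat in a second test. Of about 67,000 compounds tested this way, about 40 (0.06%) reached 50% or more in at least one test.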
Leishmania in macrophages: 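Cell assay of Leishmania donovani living inside macrophages; the read-out is not stated. Compounds at 30 µM. Higher reads as stronger inhibition (inferred: compounds with an IC50 in retests scored well above the rest). Of about 69,000 compounds tested this way, about 1,000 (1.5%) reached 50% or more in at least one test.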

Sequences of proteins named here, by UniProt entry; tags and fusion partners are left off.
UniProt P9WNZ1, whole entry: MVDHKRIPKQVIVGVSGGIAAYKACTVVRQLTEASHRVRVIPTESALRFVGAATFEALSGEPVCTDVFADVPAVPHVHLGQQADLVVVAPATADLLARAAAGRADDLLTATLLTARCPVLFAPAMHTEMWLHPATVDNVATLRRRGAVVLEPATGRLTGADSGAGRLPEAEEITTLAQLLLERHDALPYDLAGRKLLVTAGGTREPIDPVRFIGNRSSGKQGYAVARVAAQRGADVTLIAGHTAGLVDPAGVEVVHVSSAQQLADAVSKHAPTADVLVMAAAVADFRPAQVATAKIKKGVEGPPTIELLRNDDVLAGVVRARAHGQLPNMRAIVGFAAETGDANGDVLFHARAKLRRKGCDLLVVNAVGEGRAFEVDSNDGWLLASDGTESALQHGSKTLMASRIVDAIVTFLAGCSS

Results are given as percent effect.
The record does not define 0% and 100%; most values in the screen are far below 50% and negative numbers occur (in some assays of this library far below -100).
This is an unselected part of the compounds tested.
Two or more numbers in one place are separate tests of the same structure; such repeats can differ widely.
A dash means the value is not listed here; it may have been measured.

structure	CoaBC	Leishmania in macrophages
CS(=O)(=O)NCc1cc2n(n1)CCCN(Cc1cccc(C#N)c1)C2	4.825	31.77
O=C(Nc1ccc(Cl)cn1)c1cncc(C2CCNCC2)n1	7.363	-16.97
CC(=O)N1CCC(N2CCN(Cc3ccc(C)o3)C(CCO)C2)CC1 (configuration not stated)	16.5	-1.349
O=C(Cc1csc(-c2cccc(Cl)c2)n1)NCc1cccc(C(=O)O)c1	-4.739	-28.24
CN(Cc1ccco1)C(=O)C1CCCc2ccccc21 (configuration not stated)	5.434	0.4554
c1csc(-c2noc(CC3CCCO3)n2)c1 (configuration not stated)	0.9153	-4.47
Cc1ccc(N2CC[C@@H]3CN(Cc4c[nH]cn4)C[C@@H]3C2)nn1	-8.35	-
COc1ccc(C(=O)NS(=O)(=O)c2cncc(Br)c2)cc1	-1.378	19.33
CN1CCOC(C)(C(=O)N2CCSCC2)C1 (configuration not stated)	2.101	11.83
Cc1ccsc1CN1CCc2nc3ccsc3c(=O)n2CC1.Cl	-	14.2
CC(=O)N1CCC(c2nc3ccc(NC4CCC4)cn3n2)CC1	0.8663	-
Cc1ccc(CNC(=O)Nc2nnc(C)s2)cn1	2.504	-18.98
CC(C)NC(=O)[C@@H]1C[C@H](N)CN1C(=O)c1cc2c([nH]c1=O)CCCC2	-1.266	-14.53
O=C(Nc1cc(-c2ccncc2)no1)C1CC1	-5.703	8.855
CC1(C)CN(C(=O)NCCc2ccn(-c3ccccc3)n2)CCO1	3.846	-0.6323
CC(C)CCC(C)NC(=O)CN1C=Nc2ccccc2S1(=O)=O (configuration not stated)	-0.1304	31.49
Cn1c(C2CC2)nc2c1CCN(CC(=O)Nc1ccncc1)C2	1.818	-1.211
CCn1nc(C)c2nc(C)nc(NCCCn3cccn3)c21	2.309	-10.11
CNc1snc(C)c1C(=O)N1CCCC(n2ccnc2C(C)C)C1 (configuration not stated)	0.1304	2.719
CCC[C@H]1CN(S(=O)(=O)c2cc(C)ccc2C)C[C@@H]1N	0.861	45.55
Cc1nc(CN(C)C)cc(N2CCCC(COc3ccc(F)cc3)C2)n1 (configuration not stated)	-42.23	-8.427
Cc1nc(CNCC2Cn3nncc3CO2)cs1.O=C(O)C(F)(F)F (configuration not stated)	-	41.07
Cc1cc(C)nc(C2(C)CCCN2CCO)n1 (configuration not stated)	9.809	46.84
CC(NC(=O)NC1CCN(Cc2ccccn2)CC1)c1ccco1 (configuration not stated)	1.613	20.53
COc1ccc(CNC(=O)Nc2cccnc2N2CCCC2)cc1OC	7.8	1.717
CC(c1nc(C2CC2)no1)N1CCC(NS(=O)(=O)c2cccs2)CC1 (configuration not stated)	1.595	14.95
N#Cc1cccc(CN2CCC3(CC2)CC(c2ccncc2)C(=O)N3)c1 (configuration not stated)	-6.303	-
COc1ccc(NCc2ccccc2N2CCN(C(C)=O)CC2)cn1	0.3984	11.93
CC(C)OCCC(=O)Nc1ncn(CC(=O)N2CCCCCC2)n1	0.2141	21.78
Cc1[nH]c2ccc(C(=O)N3C[C@@H](O)[C@H](N4CCOCC4)C3)cc2c1C	0.9732	-1.033 & -2.036
COCC1CN(CC2CC2)Cc2nn(C)cc21 (configuration not stated)	-5.019	-
CN1CCOC(CNCc2csc(C3CCCCC3)n2)C1 (configuration not stated)	3.345	56.43
CCOc1ncccc1CN1Cc2ncccc2C1=O	1.811	23.01
CNC(=O)[C@H]1C[C@@H]2CN(S(=O)(=O)c3cccc(C)c3)C[C@@H]2N1C	-3.909	-
[H][C@]1([C@H](O)c2ccc(NC(=O)c3ccco3)cc2)COCC(=O)N1	-	10.84
O=C(NCc1ccco1)c1cc(N2CC[C@@H](O)C2)ccn1	-1.707	16.82
OC1(CN2CCCC2)COCCN(c2noc(-c3ccccc3)n2)C1 (configuration not stated)	2.948	25.12
CCOCc1cccc(NCc2c[nH]nc2-c2cccnc2)c1	-0.9494	35.49
c1cnc(NCc2noc3c2CN(CCN2CCCC2)CC3)nc1	5.964	-
Cl.[H][C@@]12C[C@@H](C(=O)NC(C)C)O[C@]1([H])CCN2	-	56.79
Cn1cnc2c1CCN(Cc1cccc(C(N)=O)c1)C2	4.404	6.715
Cc1noc(C)c1CN1C[C@@H]2CN(C(=O)c3cnccn3)C[C@@H]2C1	-6.131	-
O=C(O)C(F)(F)F.O=C(O)C(F)(F)F.c1csc(CN2CCOCC3(CCN(C4CCOCC4)C3)C2)n1 (configuration not stated)	-	14.33
COCCN(Cc1coc(-c2ccc(OC)cc2)n1)C1CC1	-2.857	19.64

The last 3 entries again:

structure,CoaBC,Leishmania in macrophages
Cc1noc(C)c1CN1C[C@@H]2CN(C(=O)c3cnccn3)C[C@@H]2C1,-6.131,-
O=C(O)C(F)(F)F.O=C(O)C(F)(F)F.c1csc(CN2CCOCC3(CCN(C4CCOCC4)C3)C2)n1 (configuration not stated),-,14.33
COCCN(Cc1coc(-c2ccc(OC)cc2)n1)C1CC1,-2.857,19.64

The values are deposited in ChEMBL (CHEMBL3988442, “University of Dundee, Small-Polar-MMV Screening Library” (2021)).